From publication PMC12040169 (PLOS Biology, 2025)
The list shows a part of the results.

Test system: T1, CTL2-GFP (C. trachomatis L2/434/Bu, GFP-expressing)
T1 construct: L2/434/Bu, GFP-expressing
Parameters: species or system HeLa; Intracellular C. trachomatis growth in HeLa cells, bulk GFP fluorescence relative to DMSO
Conditions: bulk GFP, single well; 28.5 h, 10 µM; inhibitor

Row | SMILES | % of control remaining [%]
1 | COc1ccc(OC(C)C(=O)Nc2ccc(C(=O)O)cc2)cc1 (stereo not drawn) [CBK263622] | 97.6799
2 | CCOc1ccc(CN2CCN(CC(=O)Nc3cc(C)on3)CC2)cc1 [CBK306116] | 86.3017
3 | COc1ccc(N2C(=O)CC(N3CCN(c4ccc(S(=O)(=O)N5CCCC5)cc4)CC3)C2=O)cc1 (stereo not drawn) [CBK268851] | 125.946
4 | CC#CC(=O)N1CCCC(Cc2ccc(F)cc2F)(C(=O)OCC)C1 (stereo not drawn) [CBK307051] | 103.959
5 | COCC1CCN(C(=O)Nc2ccc(F)c(N3CCCNC3=O)c2)C1 (stereo not drawn) [CBK305487] | 117.925
6 | CSc1ccc(-c2nc(NC(=O)C(C)C)cc3cccnc23)cc1 [CBK081262] | 96.4476
7 | Cc1cc(C2CCCCCN2C(=O)c2c(C)noc2C)on1 (stereo not drawn) [CBK284844] | 99.5718
8 | COc1cccc([C@H]2CN(C(=O)c3ccccc3)[C@@H]3CCN(Cc4cccs4)C[C@H]23)c1 [CBK285609] | 88.8488
9 | Cc1ccc(S(=O)(=O)Nc2ccc(Nc3cc(-c4cccc([N+](=O)[O-])c4)ncn3)cc2)cc1 [CBK090983] | 150.403
10 | OC1(c2ccccc2)CCN(Cc2cncn2Cc2ccccc2)C1 (stereo not drawn) [CBK282809] | 85.1619
11 | CC(C)(CO)CNC(=O)c1cnc(-c2ccccc2)c(-c2ccncc2)c1 [CBK036734] | 117.047
12 | COc1ccc(C(C)C)cc1-c1cncc(NCCc2c[nH]c3ccccc23)n1 [CBK065174] | 152.95
13 | CCOC(=O)C1CCCN(Cc2nnsc2Cl)C1 (stereo not drawn) [CBK304848] | 102.371
14 | CC(C)[C@@H](CO)Nc1nccnc1-c1ccc(CN)cc1 [CBK036640] | 221.255
15 | CNC(=O)C1(Cc2ccc(-c3ccccc3)cc2)CCN(C(=O)c2cccc(OC)c2)CC1 [CBK285788] | 124.125
16 | CC(Oc1ccc(Cl)cc1Cl)C(=O)NCCc1cccc(Cl)c1 (stereo not drawn) [CBK265489] | 135.323
17 | Nc1ccc(-c2nnc(SCC(=O)Nc3ccc(Br)cc3F)n2-c2ccccc2)cc1 [CBK267175] | 170.062
18 | CC(=O)Nc1ccc(S(=O)(=O)Nc2cc(C)c(-n3nc4ccccc4n3)cc2O)cc1 [CBK268382] | 158.014
19 | Clc1ccc(COc2cc(N3CCCN(Cc4ccccc4-c4ccccc4)CC3)ncn2)cc1Cl [CBK083781T] | 75.0174
20 | NC(=O)Cn1cc(C(=O)c2ccncc2)c(=O)c2cc(Cl)ccc21 [CBK288584] | 127.966
21 | N#Cc1ccc(NC(=O)CSc2cnn[nH]2)cc1 [CBK269931] | 127.796
22 | CCOC(=O)c1[nH]c2ccccc2c1NS(=O)(=O)Cc1ccccc1 [CBK047413] | 145.035
23 | c1ccc2cc(CCN3CCN(c4nccnc4OCCN4CCOCC4)CC3)ccc2c1 [CBK082911T] | 116.748
24 | CN(C)CCCN1C(=O)C(O)=C(C(=O)c2ccc(F)cc2)C1c1ccco1 (stereo not drawn) [CBK264456] | 119.203
25 | CS(=O)(=O)N1CC2(CCN(Cc3ncc[nH]3)CC2)c2ccccc21 [CBK126680] | 128.451
26 | O=C(Nc1ccc(F)cc1)c1c(NS(=O)(=O)Cc2ccccc2[N+](=O)[O-])sc2c1CCCC2 [CBK028654] | 107.974

Row | SMILES | % of control remaining [%]
27 | COC(=O)[C@@H](C)NC(=O)[C@H]1CN(S(=O)(=O)c2ccccc2)CCN1C(C)=O [CBK289626] | 142.98
28 | CCN1C(=O)c2ccccc2C(=O)[C@@]2(C)CN(C(C)C)C[C@@H]12 [CBK283480] | 99.2918
29 | Cc1ccc2c(c1)cc(C(=O)N1CCCC(C)(C(=O)NC3CCCC3)C1)n2C (stereo not drawn) [CBK286076] | 92.3414
30 | COCC(=O)N1CCN2C(=O)c3ccc(Cl)cc3NC(=O)[C@H]2C1 [CBK289588] | 120.02
31 | COc1ccc(C(=O)Nc2ccc(C3c4ccsc4CCN3C(C)=O)cc2)cc1 (stereo not drawn) [CBK286465] | 178.475
32 | COc1ccc(C(=O)N2CC[C@H]3CC(=O)N(CCNC(C)=O)CC[C@H]3C2)cc1 [CBK288784] | 131.646
33 | CCOC(=O)Cc1csc(SC(C)C(=O)N2CCNC2=O)n1 (stereo not drawn) [CBK304551] | 90.6764
34 | O=C(O)/C=C\C(=O)NCC(=O)O [CBK260989] | 104.536
35 | CCn1c(C)nnc1SCCNc1cc(C(C)C)nc2ccnn12 [CBK306829] | 117.331
36 | Cc1ccc(-c2cncc(NCc3cccs3)n2)cc1C [CBK065967] | 138.045
37 | OCCNCCOc1ccc(Cl)cc1Br [CBK265083G] | 104.453
38 | Cc1cc(COc2cc(C(F)(F)F)ccn2)no1 [CBK115787] | 151.774
39 | Cc1cccc(N/C=C(/C#N)c2nc(-c3ccc4c(c3)OCO4)cs2)c1C [CBK263013] | 108.978
40 | OC(CN1CCN(Cc2ccc3c(c2)OCO3)CC1)C(F)(F)F (stereo not drawn) [CBK074833] | 85.1341
41 | Cc1ccc(SCC(=O)NCc2nc(-c3ccccc3)no2)cc1 [CBK269474] | 129.499
42 | Cc1cc(=O)oc2cc(OCC(=O)Nc3ccc(S(=O)(=O)O)cc3)ccc12 [CBK301204N] | 119.571
43 | O=C(C1CCC1)N1CCN(c2ccccn2)CC1 [CBK026058] | 98.8745
44 | NC(=O)C1CCN(C(=O)CSc2nc3ccccc3o2)CC1 [CBK265930] | 112.869
45 | O=C(C1CC1)N1CCC(c2nc(Cc3cccs3)no2)C1 (stereo not drawn) [CBK282980] | 98.8545
46 | Cc1nc2c(C(=O)NCC(F)(F)F)cnn2c(C)c1Cc1cccc(F)c1 [CBK162117] | 93.21
47 | CCOC(=O)[C@@]12CC=CCN(C(=O)c3cccnc3)[C@@H]1CCC2 [CBK284575] | 143.985
48 | COc1ccc2[nH]c3c(c2c1)CCNC31CCCN(CCc2ccc(F)cc2)C1 (stereo not drawn) [CBK039246] | 95.2434
49 | Cc1cc(NC(=O)NC2CCOc3ccccc32)no1 (stereo not drawn) [CBK304581] | 127.92
50 | Cc1cc(CN(C)Cc2ccc(-n3ccnc3C)cc2)n[nH]1 [CBK281989] | 152.47
51 | O=C(CSS(=O)(=O)O)NCc1ccccc1 [CBK260897N] | 109.06
52 | CCCN(CCc1ccc(C(F)(F)F)cc1)C1Cc2cc(OC)c(OC)cc2C1 [CBK017829C] | 55.4143

Row | SMILES | % of control remaining [%]
53 | Cc1nccn1CCCn1cncc1-c1cnn(C2CCCCC2)c1 [CBK281816] | 115.255
54 | O=c1cc(CN2CCN(c3ccccc3)CC2)occ1O [CBK288392] | 137.268
55 | COc1ccc(C(CNCC(O)COc2cccc3c2CCCC3)c2ccccc2)cc1 (stereo not drawn) [CBK028144] | 125.5
56 | CCN(CC)C(=O)CNS(=O)(=O)c1ccc(C)cc1 [CBK034491] | 144.952
57 | Cc1nc[nH]c1CN(Cc1cccc(F)c1)Cc1ccco1 [CBK282493] | 115.785
58 | Cc1ccc(C2(O)CCN(CCNC(=O)c3cccs3)CC2)cc1 [CBK283322] | 106.383
59 | Cc1ccc2cc(COc3cccnc3[N+](=O)[O-])c(Cl)nc2c1C [CBK297113] | 96.3565
60 | O=C(c1ccc(OC(F)(F)F)cc1)N1CCC2(CCN(C(=O)c3cc(F)c(F)cc3F)C2)C1 (stereo not drawn) [CBK131384] | 101.673
61 | CS(=O)(=O)Nc1ncc(-c2ccco2)cc1C(=O)NCc1ccc(F)cc1 [CBK076479] | 91.0802
62 | N#CCCN(C1CCCCC1)S(=O)(=O)c1cccc2nsnc12 [CBK009093] | 121.781
63 | O=S(=O)(c1ccc(Cl)cc1)N1CCN(c2cc(-c3ccco3)ncn2)CC1 [CBK091161] | 203.646
64 | CN(C)S(=O)(=O)Nc1ccc2[nH]ccc2c1 [CBK156321] | 112.076
65 | O=C1CN(Cc2cnn(-c3ccc(F)cc3)c2)CCN1C1CCCC1 [CBK281926] | 158.229
66 | CCC12CN3CC(CC)(CN(C1)C3c1ccccc1[N+](=O)[O-])C2=O (stereo not drawn) [CBK264604] | 106.268
67 | Cc1nn(CCNC(=O)C2CC(=O)N(Cc3ccccn3)C2)c(C)c1Cl (stereo not drawn) [CBK307316] | 122.389
68 | O=C(Nc1cccc(C(F)(F)F)c1)Nc1cccc(S(=O)(=O)N2CCOCC2)c1 [CBK267043] | 38.7983
69 | Cc1ccc(C(C)C(=O)N2CCC(C(=O)c3cccnc3)CC2)cc1 (stereo not drawn) [CBK283516] | 134.728
70 | CC(C)c1n[nH]c(C2CN(Cc3nc4c(F)cccc4[nH]3)CCO2)n1 (stereo not drawn) [CBK305225] | 104.522
71 | CC(C)c1nnc(NS(=O)(=O)c2ccc(N)cc2)s1 [CBK050163] | 35.8221
72 | CN1CCCN(c2nccnc2-c2cccs2)CC1 [CBK088823] | 109.863
73 | O=c1oc(-c2ccco2)nn1Cc1ccc([N+](=O)[O-])cc1 [CBK295593] | 135.404
74 | CC(NCCN1CCOCC1)=C1C(=O)c2ccccc2C1=O [CBK262691] | 130.256
75 | O=C(C[C@@H]1O[C@H](CNCc2cccc(Cl)c2)[C@@H](O)[C@H]1O)N1CCOCC1 [CBK288905] | 135.955
76 | O=C(O)c1cccc(N2C(=O)CC(n3cnc4ccccc43)C2=O)c1 (stereo not drawn) [CBK291145] | 145.435
77 | CCCC(=O)CCOC(=O)C1=C(C)OC2C1Nc1cc(F)c(F)cc1N2CC (stereo not drawn) [CBK022099] | 156.542
78 | O=C(c1cccs1)N1CCC(c2n[nH]c3ncccc23)CC1 [CBK284904] | 124.449

23 entries from above, arranged by molar mass, low to high.
Row | SMILES | % of control remaining [%]
64 | CN(C)S(=O)(=O)Nc1ccc2[nH]ccc2c1 [CBK156321] | 112.076
72 | CN1CCCN(c2nccnc2-c2cccs2)CC1 [CBK088823] | 109.863
56 | CCN(CC)C(=O)CNS(=O)(=O)c1ccc(C)cc1 [CBK034491] | 144.952
54 | O=c1cc(CN2CCN(c3ccccc3)CC2)occ1O [CBK288392] | 137.268
73 | O=c1oc(-c2ccco2)nn1Cc1ccc([N+](=O)[O-])cc1 [CBK295593] | 135.404
71 | CC(C)c1nnc(NS(=O)(=O)c2ccc(N)cc2)s1 [CBK050163] | 35.8221
57 | Cc1nc[nH]c1CN(Cc1cccc(F)c1)Cc1ccco1 [CBK282493] | 115.785
74 | CC(NCCN1CCOCC1)=C1C(=O)c2ccccc2C1=O [CBK262691] | 130.256
78 | O=C(c1cccs1)N1CCC(c2n[nH]c3ncccc23)CC1 [CBK284904] | 124.449
66 | CCC12CN3CC(CC)(CN(C1)C3c1ccccc1[N+](=O)[O-])C2=O (stereo not drawn) [CBK264604] | 106.268
76 | O=C(O)c1cccc(N2C(=O)CC(n3cnc4ccccc43)C2=O)c1 (stereo not drawn) [CBK291145] | 145.435
69 | Cc1ccc(C(C)C(=O)N2CCC(C(=O)c3cccnc3)CC2)cc1 (stereo not drawn) [CBK283516] | 134.728
53 | Cc1nccn1CCCn1cncc1-c1cnn(C2CCCCC2)c1 [CBK281816] | 115.255
65 | O=C1CN(Cc2cnn(-c3ccc(F)cc3)c2)CCN1C1CCCC1 [CBK281926] | 158.229
59 | Cc1ccc2cc(COc3cccnc3[N+](=O)[O-])c(Cl)nc2c1C [CBK297113] | 96.3565
62 | N#CCCN(C1CCCCC1)S(=O)(=O)c1cccc2nsnc12 [CBK009093] | 121.781
67 | Cc1nn(CCNC(=O)C2CC(=O)N(Cc3ccccn3)C2)c(C)c1Cl (stereo not drawn) [CBK307316] | 122.389
75 | O=C(C[C@@H]1O[C@H](CNCc2cccc(Cl)c2)[C@@H](O)[C@H]1O)N1CCOCC1 [CBK288905] | 135.955
61 | CS(=O)(=O)Nc1ncc(-c2ccco2)cc1C(=O)NCc1ccc(F)cc1 [CBK076479] | 91.0802
77 | CCCC(=O)CCOC(=O)C1=C(C)OC2C1Nc1cc(F)c(F)cc1N2CC (stereo not drawn) [CBK022099] | 156.542
63 | O=S(=O)(c1ccc(Cl)cc1)N1CCN(c2cc(-c3ccco3)ncn2)CC1 [CBK091161] | 203.646
55 | COc1ccc(C(CNCC(O)COc2cccc3c2CCCC3)c2ccccc2)cc1 (stereo not drawn) [CBK028144] | 125.5
60 | O=C(c1ccc(OC(F)(F)F)cc1)N1CCC2(CCN(C(=O)c3cc(F)c(F)cc3F)C2)C1 (stereo not drawn) [CBK131384] | 101.673
